Data set [1] concerns mIk-4 (Ikaros isoform 4) (Mus musculus). The data set is described as follows: EMSA. The conditions noted are these: purified recombinant protein, protein details: GST fusion.
Data set [2] deals with mIk-3 (Ikaros isoform 3) (Mus musculus). Put plainly: EMSA. The conditions noted are these: purified recombinant protein, protein details: GST fusion. (A gel shift assay detects complexes by their altered migration in electrophoresis.)
In data set [3] the test system is mIk-5 (Ikaros isoform 5) (Mus musculus). The data set is described as follows: EMSA. The conditions noted are these: purified recombinant protein, protein details: GST fusion.
For data set [4], the target named is mIk-1 (Ikaros isoform 1) (Mus musculus) (UniProt Q03267). The data set is described as follows: EMSA. The conditions noted are these: purified recombinant protein, protein details: GST fusion.
The subject of data set [5] is mIk-2 (Ikaros isoform 2) (Mus musculus). The data set is described as follows: EMSA. As to conditions: purified recombinant protein, protein details: GST fusion.
The subject of data set [6] is mIk-2 (transfected) (Mus musculus). Put plainly: activity in cells. As to conditions: protein in cells, only the site is given.
The target of data set [7] is mIk-1 (transfected) (Mus musculus) (UniProt Q03267). The data set is described as follows: activity in cells. As to conditions: 4 copies tkCAT, NIH-3T3, protein in cells, only the site is given.
The test system of data set [8] is mIk-2 (Ikaros isoform 2) (Mus musculus). Put plainly: SELEX. The conditions noted are these: purified recombinant protein; protein details: GST fusion.
Data set [9] concerns the target mIk-1 (Ikaros isoform 1) (Mus musculus) (UniProt Q03267). Put plainly: SELEX. The conditions noted are these: purified recombinant protein; protein details: GST fusion.
The test system of data set [10] is mIk-3 (Ikaros isoform 3) (Mus musculus). The data set is described as follows: SELEX. The conditions noted are these: purified recombinant protein; protein details: GST fusion.
The subject of data set [11] is Ikaros proteins, endogenous (EL4 nuclear extract) (Mus musculus). Put plainly: EMSA. As to conditions: two complexes, supershifted by Ikaros antisera; tested with IK-BS4 and IK-BS7 competitors; protein in an extract.
Data set [12] deals with mIk-4 (Ikaros isoform 4) (Mus musculus). Put plainly: footprint. As to conditions: methylation interference: G2,G3,G4; bottom strand 8-12; purified recombinant protein; protein details: GST fusion.
Data set [13] relates to mIk-3 (Ikaros isoform 3) (Mus musculus). Put plainly: footprint. The conditions noted are these: methylation interference: G2,G3,G4; bottom strand 7-10; purified recombinant protein; protein details: GST fusion.
Data set [14] addresses mIk-1 (Ikaros isoform 1) (Mus musculus) (UniProt Q03267). The data set is described as follows: footprint. As to conditions: methylation interference: G2,G3,G4; bottom strand G10 full, 7-9 partial; purified recombinant protein; protein details: GST fusion.
Data set [15] has as its system mIk-2 (Ikaros isoform 2) (Mus musculus). Put plainly: footprint. As to conditions: methylation interference: G2,G3,G4, G-5, A5; bottom strand G10; purified recombinant protein; protein details: GST fusion.
[16] abbreviates: did not bind any tested oligomers, variant of IK-BS1.
Setting [17] is: binding abrogated, variant of IK-BS1.
Where [18] appears, read: did not bind any tested oligomers.

Chains of the proteins cited; added tags and fusions are not shown. Chains listed by the source or under a name are the forms on record and can include a tag or linker.
UniProt Q03267, other isoform, or with tags, fused parts or gaps: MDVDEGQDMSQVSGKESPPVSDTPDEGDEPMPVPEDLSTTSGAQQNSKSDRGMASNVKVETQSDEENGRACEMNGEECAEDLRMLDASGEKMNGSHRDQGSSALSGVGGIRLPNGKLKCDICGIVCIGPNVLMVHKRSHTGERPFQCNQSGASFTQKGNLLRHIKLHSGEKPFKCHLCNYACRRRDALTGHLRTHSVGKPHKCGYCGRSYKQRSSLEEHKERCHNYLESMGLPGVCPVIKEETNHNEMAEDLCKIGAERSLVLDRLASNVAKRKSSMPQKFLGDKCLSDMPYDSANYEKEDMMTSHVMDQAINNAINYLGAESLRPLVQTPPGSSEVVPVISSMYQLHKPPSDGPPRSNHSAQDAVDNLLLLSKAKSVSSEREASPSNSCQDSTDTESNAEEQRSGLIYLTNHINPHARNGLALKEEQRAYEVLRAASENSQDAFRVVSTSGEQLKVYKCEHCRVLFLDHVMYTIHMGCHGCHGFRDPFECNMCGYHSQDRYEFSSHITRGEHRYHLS
mIk-3 (Ikaros isoform 3) (Mus musculus), one chain, as listed by the source: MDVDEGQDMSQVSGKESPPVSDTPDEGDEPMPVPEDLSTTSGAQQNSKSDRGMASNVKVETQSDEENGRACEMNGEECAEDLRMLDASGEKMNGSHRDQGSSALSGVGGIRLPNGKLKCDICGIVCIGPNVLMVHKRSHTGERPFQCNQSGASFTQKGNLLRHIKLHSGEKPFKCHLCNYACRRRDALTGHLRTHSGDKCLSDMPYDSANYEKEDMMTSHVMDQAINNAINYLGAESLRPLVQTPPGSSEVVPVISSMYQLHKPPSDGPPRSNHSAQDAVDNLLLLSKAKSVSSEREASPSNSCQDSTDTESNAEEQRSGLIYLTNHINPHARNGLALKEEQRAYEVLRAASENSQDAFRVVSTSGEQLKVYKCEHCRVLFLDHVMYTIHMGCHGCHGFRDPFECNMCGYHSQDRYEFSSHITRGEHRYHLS
Ikaros proteins, endogenous (EL4 nuclear extract) (Mus musculus), one chain, as listed by the source: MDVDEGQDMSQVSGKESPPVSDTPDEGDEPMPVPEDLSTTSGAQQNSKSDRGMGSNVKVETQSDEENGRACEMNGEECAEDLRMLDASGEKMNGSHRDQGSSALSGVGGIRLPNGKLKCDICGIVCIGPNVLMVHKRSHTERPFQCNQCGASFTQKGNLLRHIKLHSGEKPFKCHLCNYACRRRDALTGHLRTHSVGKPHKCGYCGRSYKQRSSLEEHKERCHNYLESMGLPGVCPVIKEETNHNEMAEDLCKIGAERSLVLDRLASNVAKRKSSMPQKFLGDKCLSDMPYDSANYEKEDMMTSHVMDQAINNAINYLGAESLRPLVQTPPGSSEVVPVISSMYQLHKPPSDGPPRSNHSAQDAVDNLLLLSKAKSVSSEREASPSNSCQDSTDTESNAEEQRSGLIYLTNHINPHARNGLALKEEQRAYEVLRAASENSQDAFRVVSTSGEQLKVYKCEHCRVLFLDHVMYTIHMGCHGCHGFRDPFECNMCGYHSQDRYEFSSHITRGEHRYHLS
mIk-2 (Ikaros isoform 2) (Mus musculus), one chain, as listed by the source: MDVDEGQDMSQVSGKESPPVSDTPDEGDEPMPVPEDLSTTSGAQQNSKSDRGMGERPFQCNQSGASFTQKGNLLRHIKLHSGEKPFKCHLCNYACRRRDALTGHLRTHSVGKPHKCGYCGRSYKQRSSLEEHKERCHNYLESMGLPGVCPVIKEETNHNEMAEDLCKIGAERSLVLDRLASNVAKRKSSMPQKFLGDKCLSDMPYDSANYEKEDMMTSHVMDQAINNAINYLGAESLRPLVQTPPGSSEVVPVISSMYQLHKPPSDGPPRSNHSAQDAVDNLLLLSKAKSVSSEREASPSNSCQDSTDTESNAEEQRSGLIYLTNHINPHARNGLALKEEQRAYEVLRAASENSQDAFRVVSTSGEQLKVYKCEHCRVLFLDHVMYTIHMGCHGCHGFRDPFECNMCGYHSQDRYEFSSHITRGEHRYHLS
mIk-4 (Ikaros isoform 4) (Mus musculus), one chain, as listed by the source: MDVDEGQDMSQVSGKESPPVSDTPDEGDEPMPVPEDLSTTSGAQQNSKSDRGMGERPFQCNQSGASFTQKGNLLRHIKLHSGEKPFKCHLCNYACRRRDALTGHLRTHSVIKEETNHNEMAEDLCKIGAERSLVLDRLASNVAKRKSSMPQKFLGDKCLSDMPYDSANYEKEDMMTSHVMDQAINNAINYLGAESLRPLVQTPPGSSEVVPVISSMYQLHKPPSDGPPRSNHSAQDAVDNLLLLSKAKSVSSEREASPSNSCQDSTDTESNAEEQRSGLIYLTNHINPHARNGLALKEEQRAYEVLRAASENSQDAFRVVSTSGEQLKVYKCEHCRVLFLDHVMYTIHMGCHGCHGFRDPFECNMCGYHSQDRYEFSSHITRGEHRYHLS
mIk-5 (Ikaros isoform 5) (Mus musculus), one chain, as listed by the source: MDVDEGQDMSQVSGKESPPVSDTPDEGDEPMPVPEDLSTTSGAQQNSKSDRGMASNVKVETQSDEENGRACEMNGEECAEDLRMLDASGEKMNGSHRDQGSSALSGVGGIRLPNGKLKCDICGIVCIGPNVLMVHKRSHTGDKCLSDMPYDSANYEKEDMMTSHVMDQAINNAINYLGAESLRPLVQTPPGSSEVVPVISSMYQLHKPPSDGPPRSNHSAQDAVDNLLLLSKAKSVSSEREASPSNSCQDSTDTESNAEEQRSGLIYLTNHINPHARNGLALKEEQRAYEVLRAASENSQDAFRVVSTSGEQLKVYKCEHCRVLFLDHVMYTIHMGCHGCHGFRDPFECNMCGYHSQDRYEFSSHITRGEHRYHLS

The exact form of at least one protein or probe is not confirmed. For some of these results: A negative result means that nothing was seen under these conditions. For some of these results: A weaker result is weaker than the reference pair of the same experiment. For some of these results: Results from cells or extracts need not show a direct contact. For some of these results: The direction of at least one scale is not stated here.

For the sequence “TCAGCTTTTGGGAAAAACCTGTCA (double strand) [IK-BS9]”, the binding result in data set [1] (variant of IK-BS1) is “no binding”; in [2] (variant of IK-BS1), “no binding”; in data set [3] (setting [16]), “no binding”; in data set [5] (not significantly affected, variant of IK-BS1), “binds”. The binding signal (fold difference from IK-BS1/BS2) in [4] (variant of IK-BS1) was 2. Also, in [6] (4 copies tkCAT, NIH-3T3, variant of IK-BS1), the “activity on this sequence” value is reported as “active”. This sequence also yielded an activity on this sequence (fold activation) in [7] (variant of IK-BS1) of 3.3.
For “GGTGTTCATTGGGATAGCATGCCT (double strand) [IK2-20]”, the selection result in data set [8] was “selected”.
Consider “GGTGTTTAACCAATTGGGAAGCCT (double strand) [IK2-7]”, for which the selection result in data set [8] was “selected”.
Take “AGGCATTAAAATGGGAATAACACC (double strand) [Ik1-5]”: in [9], the selection result is given as “selected”.
On the same count and under the same terms, the result for “GGTGTGGGAATAACTGGGATGCCT (double strand) [Ik1-7]” reads “selected”.
“AGGCTTGGGATTGGGAATAACACC (double strand) [IK3-2]”: in data set [10], the selection result is given as “selected”.
On to “GTTTCCATGACATCATGATGGGGGT (double strand) [deltaA element of CD3delta enhancer]”, for which the binding result in data set [1], in data set [2] (two complexes), in data set [3], in [4] (two complexes) and in data set [5] (two complexes) was “binds” each time.
On to “AGGCGTGGGAATATCAGGACACC (double strand) [IK3-4]”, for which, in [10], the selection result is reported as “selected”.
On to “AGGCCATGGGAATGAAGGAACACC (double strand) [Ik1-2]”, for which the selection result in [9] is given as “selected”.
For the sequence “GGTGTAAAAATGGGAACAAAGCCT (double strand) [IK2-5]”, the selection result in data set [8] is “selected”.
Turning to “TCAGCTTTTGGGAATGTATTCCCTGTCA (double strand) [IK-BS4]”, the binding result in [1] (high affinity, cooperative) is given as “binds”; in [11] it was “binds”; in [3] it was “no binding”. In addition, the binding signal (fold over IK-BS1) in data set [2] came out at 3.5; in data set [4], 2.3; in [5] (slower, higher-order complex) it was 6.3.
In the case of “GGTGTAAGGAATACTGGAATGCCTA (double strand) [IK3-23]”, the selection result in data set [10] is “selected”.
In the case of “GGTGTCGGGAATTATTTTAGGCCT (double strand) [IK2-4]”, the selection result in data set [8] is “selected”.
On to “GGTGTAGGAATGCGGTAATTGCCT (double strand) [Ik1-6]”, for which the selection result in data set [9] is “selected”.
As for “AGGCTGGGAATGCTGGGAAACACC (double strand) [IK3-5]”, the selection result in data set [10] is “selected”.
Regarding “GGTGTAAATTGGGAATGCTGTGCCT (double strand) [Ik1-3]”, in data set [9], the selection result was “selected”.
For the sequence “TCAGCTTTTGGGATTACCCTGTCA (double strand) [IK-BS3]”, the binding result in data set [1] (variant of IK-BS1) is recorded as “no binding”; in data set [2] (variant of IK-BS1), “no binding”; in data set [3] (setting [16]) it was “no binding”; in [4] (variant of IK-BS1), “binds more weakly”; in [5] (no effect on binding, variant of IK-BS1) it was “binds”.
In the case of “GGTGTTGGGATTGGGAATGTGCCT (double strand) [IK2-3]”, in data set [8], the selection result is “selected”.
Regarding “AGGCGATTTTGGGAATTTCACACC (double strand) [Ik1-1]”, the selection result in data set [9] is on record as “selected”.
On the same count and under the same terms, next, “GGTGTGGGAATGTCACTTCAGCCT (double strand) [Ik1-8]”: “selected”.
On the same count and under the same terms, next, “AGGCATGGGAATGTCTGGAACACC (double strand) [Ik1-4]”: “selected”.
As to “GGTGTAAATCGGGAATTCCGGCCTA (double strand) [IK3-17]”, in data set [10], the selection result was “selected”.
Consider “GGTGTATCCCGGGAATACCGGCCTA (double strand) [IK3-14]”, for which the selection result in [10] was “selected”.
For “GGTGTGGGAAAGATATAGCCGCCT (double strand) [IK2-6]”, the selection result in [8] was “selected”.
Take “TCAGCGGGGGGGAATACCCTGTCA (double strand) [IK-BS5]”: the binding result was “binds more weakly” in data set [2] (variant of IK-BS1), “no binding” in [3] (setting [16]), “binds more weakly” in data set [4] (variant of IK-BS1) and “binds more weakly” in data set [5] (variant of IK-BS1).
As to “TCAGCTTTTGGGAATACCCTGTCA (double strand) [IK-BS1]”, the binding result in data set [1] and in [3] was “no binding” in each case. In addition, the binding signal (fold lower complex than mIk-1) turned out to be 1.7 in [2] (20 uM ZnCl2, though text ranks mIk-2 before mIk-3) and 3.4 in data set [5] (20 uM ZnCl2). Moreover, the “activity on this sequence” value in [6] (4 copies tkCAT, NIH-3T3) is “active”. The sequence also had an activity on this sequence (fold activation) in [7] of 11.
For “AGGCTTTTGGGAATACCAGACACC (double strand) [IK3-1]”, the selection result in data set [10] is given as “selected”.
“GGTGTTGGGAATGCTGGAATGCCTA (double strand) [IK3-6]”: in data set [10], the selection result is “selected”.
Consider “TCAGCTTTTGAGAATACCCTGTCA (double strand) [IK-BS7]”, for which the binding result in data set [1] (setting [17]), in data set [2] (setting [17]), in data set [3] (setting [16]), in [4] (setting [17]) and in [5] (setting [17]) was “no binding” in each case.
On to “AGAAGTTTCCATGACATCATGAATGGGGGTGGCAGAGA (double strand) [deltaA element (reporter, reiterated)]”, for which the activity on this sequence (fold activation) in [6] (CV1 cells) is 8.
As to “GGTGTTCCTGGGAATGTTCGGCCTA (double strand) [IK3-3]”, the selection result in data set [10] is reported as “selected”.
On to “GGTGTAGGAATGGGAATACAGCCT (double strand) [IK2-2]”, for which the selection result in data set [8] was “selected”.
Take “TCAGCTTTTGGGAATCTCCTGTCA (double strand) [IK-BS2]”: the binding result in data set [1] is “binds”; in data set [2] (greatly reduced), “binds more weakly”; in data set [3] (setting [18]), “no binding”; in data set [4] (similar to IK-BS1) it was “binds”; in [5] (similar to IK-BS1, higher-order complex) it was “binds”; in [12], “binds”. The binding result in [13], in [14] and in data set [15] was “binds” in each case. Also, the activity on this sequence (fold activation) in [6] (4 copies tkCAT, NIH-3T3) turned out to be 11; in data set [7], 19.
Turning to “GGTGTGGAATCGGGAATTTAGCCT (double strand) [Ik1-19]”, the selection result in [9] is “selected”.
For the sequence “GGTGTAATTGGGAATTTTTAGCCTA (double strand) [IK3-7]”, the selection result in data set [10] is listed as “selected”.
Regarding “TCAGCTTTTGGGAATTCCCTGTCA (double strand) [IK-BS6]”, the binding result in data set [1] is on record as “no binding”; in [2] (similar to IK-BS1), “binds”; in data set [3] (setting [18]), “no binding”; in data set [4] (similar to IK-BS1), “binds”; in data set [5] (similar to IK-BS1), “binds”.
Take “GGTGTACGGTTGGGAATGCGGCCT (double strand) [IK2-1]”: the selection result in data set [8] was “selected”.
The same measure, in the same setting: the result for “GGTGTTCTTCGGGATGGCTTGCCT (double strand) [IK2-32]” reads “selected”.
Take “AGGCAAATTTGGGAATACTACACC (double strand) [Ik1-10]”: the selection result in data set [9] is “selected”.
Regarding “AGGCGTTTGGGATGTATTTACACC (double strand) [IK2-22]”, in data set [8], the selection result is recorded as “selected”.

The values above are taken from US6228611.
